In PubChem BioAssay AID493014 (National Center for Advancing Translational Sciences (NCATS), 2011):
The whole screen tested about 340,000 compounds, of which about 170 (0.05%) were called active. The inconclusive results got no clear call from the source; some entries with a clear call stand among them for comparison. Calls come from the whole dose curve; as a rule, active = well fitted inhibition curve with a large enough effect in the signal ratio, with a control signal flat (not every such curve was filed as active); inconclusive = small, poorly fitted or top-dose-only effect, or effect the other way, or a change in a side signal; inactive = flat fitted curve, though single readings scatter; the % refers to the signal ratio. A potency beside an inconclusive call is a rough fit, not a confirmed value.

Experiment: qHTS Assay to Find Inhibitors of Chronic Active B-Cell Receptor Signaling;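 for activity change, negative = inhibition: plate controls were basal doxycycline-induced cells for no effect and cells given 10 µM MG132 for full effect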
Conditions: ABC-DLBCL IkBa-CBG/CBR reporter, luminescence ratio (green luciferase fused to IkBa over red control in TMD8 lymphoma cells), 4 h; activity change, negative = inhibition: at 46.1 µM (top of the series)
Summary of the method: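 Doxycycline induced both beetle luciferases in TMD8 lymphoma cells; IKK-driven degradation limits the IkappaBalpha-fused green signal, while red luminescence normalises for cell number and nonspecific effects. Compounds tested up to 46 uM, 4 hrs.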
Potency is the fitted concentration of half-maximal effect.

Row | Compound | activity change, negative = inhibition | Potency
1 | Cc1ccc(Cl)cc1NC(=O)c1oc2ccc(S(=O)(=O)N3CCCCCC3)cc2c1C | inactive | 
2 | CCCNS(=O)(=O)c1ccc(OCC(=O)Nc2ccc3c(c2)OCCO3)cc1 | inconclusive: -10.7% | 
3 | O=c1nc(N2CCOCC2)ccn1-c1nc(-c2ccccc2)oc1-c1ccccc1 | inconclusive: 0.956% | 
4 | O=C(Nc1nnc(-c2ccncc2)o1)c1ccc(Br)s1 |  | inconclusive: 10 µM [falling, partial curve]
5 | O=C(Nc1ccc(N2CCOCC2)cc1)c1ccc2c(c1)OCO2 |  | inconclusive: 22.4 µM [falling, partial curve]
6 | CCC(=O)Nc1nc2n(n1)C(c1ccc(OC)cc1)C=C(c1ccccc1)N2 (stereo not drawn) |  | inconclusive: 20.6 µM [falling, partial curve, poor fit]
7 | CC(C)Cc1nc(SCC(=O)NCC2CCCO2)c2c(=O)n(C)c(=O)n(C)c2n1 (stereo not drawn) | inactive | 
8 | CC(C)c1ccc(N2CCN(C(=O)c3ccccc3NC(=O)/C=C(\C(=O)O)c3ccccc3)CC2)cc1 | inconclusive: 11.5% | 
9 | Cc1cccc2nc(-c3ccccc3)nc(N[C@@H](CO)c3ccccc3)c12 | inconclusive: 7.5% | 
10 | CCc1nc2cccnc2n1-c1ccc(CC(=O)NCCOC)cc1 | inconclusive: 0.0312% | 
11 | CCOC(=O)c1cc2ccc(OC)c(OC)c2c(=O)s1 |  | inconclusive: 4.11 µM [rising, partial curve, poor fit]
12 | COc1cc(OC)cc(-c2nnc(NC(=O)CCS(=O)(=O)c3ccc(F)cc3)o2)c1 | inactive | 
13 | Cc1cc(-c2ccccc2)nc(N2CCN(c3ccccn3)CC2)n1 | inactive | 
14 | Cc1ccc(OCc2csc(N)n2)cc1 |  | inconclusive: 25.1 µM [falling, single point]
15 | O=C(N/N=C/c1ccsc1)C1CC1 | inconclusive: -44% | 
16 | Cc1cnc(C(=O)OCC(=O)Nc2sc3c(c2C#N)CCC3)cn1 | inactive | 
17 | Cc1ccc(NC(=S)N2CCN(C3CCCCC3)CC2)cc1 | inactive | 
18 | O=C(CSc1nc(-c2ccccc2)nc2ccccc12)Nc1nccs1 |  | inconclusive: 3.16 µM [falling, partial curve, poor fit]
19 | O=C(NCCc1ccc(Cl)cc1)c1ccc(CSCc2cccc(Cl)c2)o1 | inactive | 
20 | COc1ccc(C)cc1NC(=O)CCN1CC(C)OC(C)C1 (stereo not drawn) | inactive | 
21 | COc1ccc(C(=O)Sc2nncc3ccccc23)cc1 | inconclusive: -7.6% | 
22 | CCC1(C)Cc2c(sc3c2c2ncnn2c2nnc(SCC(=O)NCc4ccco4)n32)CO1 (stereo not drawn) | inactive | 
23 | COc1ccc2nc3n(c(=O)c2c1)-c1ccc(Cl)cc1C(=O)NC3Cc1ccccc1 (stereo not drawn) | inconclusive: -0.38% | 
24 | O=C(O)c1nnn(-c2cccc(C(F)(F)F)c2)c1-c1ccccc1 | inconclusive: 19.7% | 
25 | Cc1ccc(S(=O)(=O)CC(=O)NCc2ccc(Cl)cc2)cc1 | inconclusive: 7% | 
26 | CCOC(=O)C1=C(C)N(C)C(C)=C(C(=O)OCC)C1c1ccc(C(=O)OC)cc1 | inconclusive: -18.8% | 
27 | COc1ccc(-c2noc(CN(C)S(=O)(=O)c3ccc(C)cc3)n2)cc1 | inconclusive: 3.15% | 

Grouped by structure, the entries above with a Cl atom (four)
Row | Compound | activity change, negative = inhibition | Potency
1 | Cc1ccc(Cl)cc1NC(=O)c1oc2ccc(S(=O)(=O)N3CCCCCC3)cc2c1C | inactive | 
19 | O=C(NCCc1ccc(Cl)cc1)c1ccc(CSCc2cccc(Cl)c2)o1 | inactive | 
23 | COc1ccc2nc3n(c(=O)c2c1)-c1ccc(Cl)cc1C(=O)NC3Cc1ccccc1 (stereo not drawn) | inconclusive: -0.38% | 
25 | Cc1ccc(S(=O)(=O)CC(=O)NCc2ccc(Cl)cc2)cc1 | inconclusive: 7% | 

Some of these compounds in order of formula weight, ascending.
Row | Compound | activity change, negative = inhibition | Potency
25 | Cc1ccc(S(=O)(=O)CC(=O)NCc2ccc(Cl)cc2)cc1 | inconclusive: 7% | 
3 | O=c1nc(N2CCOCC2)ccn1-c1nc(-c2ccccc2)oc1-c1ccccc1 | inconclusive: 0.956% | 
8 | CC(C)c1ccc(N2CCN(C(=O)c3ccccc3NC(=O)/C=C(\C(=O)O)c3ccccc3)CC2)cc1 | inconclusive: 11.5% | 

Next part.

Row | Compound | activity change, negative = inhibition | Potency
28 | COC(=O)CCC(=O)N1CCCC(CO)(Cc2ccccc2)C1 (stereo not drawn) | inconclusive: 2.68% | 
29 | COc1cccc(NC(=S)N(Cc2ccccn2)Cc2ccccc2Cl)c1 | inactive | 
30 | CCCCCCC(=O)OCC(=O)c1ccc2c(c1)NC(=O)CO2 | inconclusive: 0.596% | 
31 | O=C(NCc1cccnc1)/C(=C/c1ccc(Cl)cc1)NC(=O)c1ccccc1 | inactive | 
32 | COc1ccc(CN2CSC(=S)N(Cc3ccc(OC)cc3)C2)cc1 |  | active: 15.8 µM
33 | COc1ccccc1-c1n[nH]c(=S)o1 | inconclusive: 3.99% | 
34 | CCC1OC2(C)OC(=N)C1(C#N)C(C#N)(C#N)C2c1ccccc1 (stereo not drawn) | inactive | 
35 | Cc1c(Cl)ccc2sc(N3CCN(C(=O)C4CC4)CC3)nc12 | inactive | 
36 | O=C(CN1CCCc2ccccc21)N/N=C/c1ccccc1O |  | inconclusive: 11.6 µM [falling, partial curve]
37 | O=C(Nc1ccccc1C(=O)O)c1cc(S(=O)(=O)NCc2ccccc2)ccc1Cl | inconclusive: 4.67% | 
38 | Cc1cc([N+](=O)[O-])cnc1NC(C)c1ccccc1 (stereo not drawn) | inconclusive: 0.62% | 
39 | COC(=O)C1=C(C)N(c2ccc(OC)cc2)C(=O)/C1=C\c1cccs1 | inconclusive: 5.05% | 
40 | CCS(=O)(=O)n1nc(-c2ccc(Cl)cc2)nc1N | inconclusive: 8.66% | 
41 | O=C(O)c1cc(-c2ccc(-c3ccc(F)cc3)o2)nc2ccccc12 |  | inconclusive: 25.1 µM [falling, single point]
42 | Nc1nc(NC(=O)c2cccs2)nn1-c1ccccc1 | inconclusive: 203% | 
43 | COc1cccc(NC(=O)CSc2c3c(nc4ccccc24)CCCC3)c1 | inconclusive: 0.666% | 
44 | CCCn1nc(C(=O)Nc2nc3ccccc3[nH]2)c2ccccc2c1=O | inconclusive: -4.84% | 
45 | Cc1cc(-c2ccccc2)c2c(=O)n(-c3ccccc3)[nH]c2n1 |  | inconclusive: 2.82 µM [rising, partial curve, poor fit]
46 | CCOC(=O)SC1=N/C(=C\c2ccc(N(C)C)cc2)C(=O)S1 | inconclusive: 11.7% | 
47 | CCCOc1ccc(C(=O)NC(=S)Nc2nc3ccc(C)cc3s2)cc1 |  | inconclusive: 14.1 µM [falling, partial curve, poor fit]
48 | CC(=O)Nc1ccc(-c2csc(Nc3ncccn3)n2)cc1 | inconclusive: 11% | 
49 | NC(=S)N/N=C/c1c(O)c(Br)cc2oc3c(c12)CCCC3 |  | inconclusive: 5.01 µM [rising, partial curve]
50 | COc1ccc(C)cc1N1C(=N)/C(=C2/Nc3ccccc3S2)C(c2ccccc2)C1=O (stereo not drawn) |  | inconclusive: 20.6 µM [falling, partial curve]
51 | O=C(/C=C/c1ccc(S(=O)(=O)N2CCOCC2)cc1)Nc1cc(F)ccc1F | inconclusive: -2.25% | 
52 | COc1cccc(OC)c1OCCCSc1nc(C)cc(=O)[nH]1 |  | inconclusive: 23.1 µM [falling, partial curve]
53 | O=C(Cn1ccn(-c2ccc(F)c(Cl)c2)c(=O)c1=O)NCCc1ccccc1 |  | inconclusive: 5.17 µM [falling, partial curve]
